# The list shows a part of the results.
# Experiments:
# Experiment in all cases: glycan array binding signal (z-score within array); higher = stronger binding
# Details in all cases: glycan notation: IUPAC condensed, linker removed
# [1] = target: Neu5Ac(a2-3)Gal(b1-4)GlcNAc(b1-3)Gal(b1-4)GlcNAc(b1-6)[Gal(b1-3)]GalNAc
# Method in brief: (§1)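 Glycan array data were curated from 3228 arrays in the Consortium for Functional Glycomics database and kept only where the protein sequence was available. Glycan names were converted to IUPAC-condensed notation, and columns mapping to the same glycan were averaged. The binding signal is a within-array Z-score, averaged across arrays of the same protein sequence at different concentrations or buffers and across linkers. Negative Z-scores can be read as non-binding.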
# [2] = target: Neu5Ac(a2-3)Gal(b1-4)GlcNAc(b1-3)Gal(b1-4)[Fuc(a1-3)]GlcNAc
# Method in brief: as §1
# [3] = target: Neu5Ac(a2-3)Gal(b1-4)GlcNAc(b1-3)GalNAc
# Method in brief: as §1
# [4] = target: Neu5Ac(a2-3)Gal(b1-4)GlcNAc(b1-3)[Neu5Ac(a2-3)Gal(b1-4)GlcNAc(b1-6)]GalNAc
# Method in brief: as §1
# [5] = target: Neu5Ac(a2-3)Gal(b1-4)GlcNAc(b1-6)GalNAc
# Method in brief: as §1
# [6] = target: Neu5Ac(a2-3)Gal(b1-4)GlcNAc(b1-6)[Gal(b1-3)]GalNAc
# Method in brief: as §1
# [7] = target: Neu5Ac(a2-3)Gal(b1-4)GlcNAc(b1-6)[Neu5Ac(a2-3)Gal(b1-3)]GalNAc
# Method in brief: as §1
# [8] = target: Neu5Ac(a2-3)Gal(b1-4)GlcNAc6S
# Method in brief: as §1
# [9] = target: Neu5Ac(a2-3)Gal(b1-4)[Fuc(a1-3)]GlcNAc
# Method in brief: as §1
# [10] = target: Neu5Ac(a2-3)Gal(b1-4)[Fuc(a1-3)]GlcNAc(b1-2)Man
# Method in brief: as §1
# [11] = target: Neu5Ac(a2-3)Gal(b1-4)[Fuc(a1-3)]GlcNAc(b1-3)Gal
# Method in brief: as §1
# [12] = target: Neu5Ac(a2-3)Gal(b1-4)[Fuc(a1-3)]GlcNAc(b1-3)Gal(b1-4)GlcNAc
# Method in brief: as §1
# [13] = target: Neu5Ac(a2-3)Gal(b1-4)[Fuc(a1-3)]GlcNAc(b1-3)Gal(b1-4)[Fuc(a1-3)]GlcNAc(b1-3)Gal(b1-4)[Fuc(a1-3)]GlcNAc
# Method in brief: as §1
# [14] = target: Neu5Ac(a2-3)Gal(b1-4)[Fuc(a1-3)]GlcNAc(b1-3)GalNAc
# Method in brief: as §1
# [15] = target: Neu5Ac(a2-3)Gal(b1-4)[Fuc(a1-3)]GlcNAc(b1-6)[Gal(b1-3)]GalNAc
# Method in brief: as §1
# [16] = target: Neu5Ac(a2-3)Gal(b1-4)[Fuc(a1-3)]GlcNAc(b1-6)[Neu5Ac(a2-3)Gal(b1-3)]GalNAc
# Method in brief: as §1
# [17] = target: Neu5Ac(a2-3)Gal(b1-4)[Fuc(a1-3)]GlcNAc6S
# Method in brief: as §1
# [18] = target: Neu5Ac(a2-3)Gal6S(b1-4)GlcNAc
# Method in brief: as §1
# [19] = target: Neu5Ac(a2-3)Gal6S(b1-4)[Fuc(a1-3)]GlcNAc
# Method in brief: as §1
binder,measurement,setting,value
Vd7LysM (Verticillium dahliae) (protein) RRGPEPKYPPAAGTSSYCSYWVDYEGDKSCSRVLEDNVVVLKDFARWNPTVGADCSGIKAGNSYCVEAFGEPEPIEVTTTTRAATTTTQPTATTTTFANGIATPQPTQSGMVTNCNKFHWIAEGVSCSQVISFQKITLADFVKWNPSVKSDCSGMWAGVNVCVGVVGSSTDTAKPTTTAPSNGVVTPQPTQPSMVTNCNKFHWIAKGVTCQQVISYQKISLADFVKWNPSVLSDCSGMWAEVQVCVGVIGSTPTTLATTTTTAGNGVSTPLPTQPGMVTNCAKFHWVAKGVTCNQIYSFQKITLEQFVSYNPTVKSDCSGMQAEVQVCVGLIAGTTPTTTRPPTTTAPGNGVSTPQPTQPGMVTNCAKFHWVAKGVTCNQIYSFQKITLEQFVSFNPTVKSDCTGMQAEVNVCVGLIGGNPTPTQTGNGIATPTPIQPGMVSNCKKFHWIAQGVTCQQVISFQKITLADFVKWNTGVGSDCRTMWAETNVCVGV,glycan array binding signal (z-score),[1],1.94
same,glycan array binding signal (z-score),[2],0.578
same,glycan array binding signal (z-score),[3],-0.173
same,glycan array binding signal (z-score),[4],-0.602
same,glycan array binding signal (z-score),[5],-0.583
same,glycan array binding signal (z-score),[6],-1.19
same,glycan array binding signal (z-score),[7],0.699
same,glycan array binding signal (z-score),[8],-0.253
same,glycan array binding signal (z-score),[9],0.307
same,glycan array binding signal (z-score),[10],-0.307
same,glycan array binding signal (z-score),[11],-1.44
same,glycan array binding signal (z-score),[12],0.427
same,glycan array binding signal (z-score),[13],-0.577
same,glycan array binding signal (z-score),[14],1.12
same,glycan array binding signal (z-score),[15],0.347
same,glycan array binding signal (z-score),[16],1.41
same,glycan array binding signal (z-score),[17],-0.942
same,glycan array binding signal (z-score),[18],-0.911
same,glycan array binding signal (z-score),[19],-0.384

# Two entries from above, with tabs:
binder	measurement	setting	value
Vd7LysM (Verticillium dahliae) (protein) RRGPEPKYPPAAGTSSYCSYWVDYEGDKSCSRVLEDNVVVLKDFARWNPTVGADCSGIKAGNSYCVEAFGEPEPIEVTTTTRAATTTTQPTATTTTFANGIATPQPTQSGMVTNCNKFHWIAEGVSCSQVISFQKITLADFVKWNPSVKSDCSGMWAGVNVCVGVVGSSTDTAKPTTTAPSNGVVTPQPTQPSMVTNCNKFHWIAKGVTCQQVISYQKISLADFVKWNPSVLSDCSGMWAEVQVCVGVIGSTPTTLATTTTTAGNGVSTPLPTQPGMVTNCAKFHWVAKGVTCNQIYSFQKITLEQFVSYNPTVKSDCSGMQAEVQVCVGLIAGTTPTTTRPPTTTAPGNGVSTPQPTQPGMVTNCAKFHWVAKGVTCNQIYSFQKITLEQFVSFNPTVKSDCTGMQAEVNVCVGLIGGNPTPTQTGNGIATPTPIQPGMVSNCKKFHWIAQGVTCQQVISFQKITLADFVKWNTGVGSDCRTMWAETNVCVGV	glycan array binding signal (z-score)	[4]	-0.602
same	glycan array binding signal (z-score)	[16]	1.41

# — the supplement of paper PMC8728848
